Patent EP0164635A2, “Imidazothiazolemethylene-acetohydrazide derivatives, preparation thereof and pharmaceutical composition having diuretic activity” (MEDIOLANUM FARMACEUTICI s.r.l., priority 1984, dated 1985)

Columns and labels:
in vivo = conditions: rat, po
rat = assay: Excreted urinary electrolytes after oral administration, with a second water load after 0-3 h; type: in vivo; conditions: 10 mg/kg
Protocol: The compounds were administered by the oral route, under the same conditions as described in the previous test, but the animals, after the O-3 hours interval, were treated with further 25 ml/kg of distilled water, by intubation.

## NS(=O)(=O)c1cc(C(=O)O)c(NCc2ccco2)cc1Cl [Furosemide, furosemide, reference compound]
In vivo
  LD50: 2600 mg/kg
rat; 0-3 h
  EXCRETED URINARY ELECTROLYTES WITH RESPECT TO BODY WEIGHT, Cl^-: 1.59 mEq/kg
rat; 0-6 h
  EXCRETED URINARY ELECTROLYTES WITH RESPECT TO BODY WEIGHT, Cl^-: 1.59 mEq/kg
rat; 3-6 h
  EXCRETED URINARY ELECTROLYTES WITH RESPECT TO BODY WEIGHT, Cl^-: 0.0 mEq/kg
